In doi:10.1101/137844:

Target: HaRxL106ΔC (yeast two-hybrid bait) (Hyaloperonospora arabidopsidis (Emoy2))
Assay: two-hybrid

Binder | binding
RCD1 PARP (amino acids 265-460) (domain or fragment, UniProt Q8RY59 265-460) AKLTGSEVLDKDAVKKMFAVGTASLGHVPVLDVGRFSSEIAEARLALFQKQVEITKKHRGDANVRYAWLPAKREVLSAVMMQGLGVGGAFIRKSIYGVGIHLTAADCPYFSARYCDVDENGVRYMVLCRVIMGNMELLRGDKAQFFSGGEEYDNGVDDIESPKNYIVWNINMNTHIFPEFVVRFKLSNLPNAEGNL | no binding
RCD1 ---PARP (amino acids 170-460) (domain or fragment, UniProt Q8RY59 170-460) ERTNYCHHKCVEDPKQNAPHDIKLRLEIDVNGGETPRLNLEECSDESGDNMMDDVPLAQRSSNEHYDEATEDSCSRKLEAAVSKWDETDAIVVSGAKLTGSEVLDKDAVKKMFAVGTASLGHVPVLDVGRFSSEIAEARLALFQKQVEITKKHRGDANVRYAWLPAKREVLSAVMMQGLGVGGAFIRKSIYGVGIHLTAADCPYFSARYCDVDENGVRYMVLCRVIMGNMELLRGDKAQFFSGGEEYDNGVDDIESPKNYIVWNINMNTHIFPEFVVRFKLSNLPNAEGNL | no binding

Continued, values first:

binding | Binder
no binding | RCD1 WWE---PARP (amino acids 1-460) (domain or fragment, UniProt Q8RY59 1-460) MEAKIVKVLDSSRCEDGFGKKRKRAASYAAYVTGVSCAKLQNVPPPNGQCQIPDKRRRLEGENKLSAYENRSGKALVRYYTYFKKTGIAKRVMMYENGEWNDLPEHVICAIQNELEEKSAAIEFKLCGHSFILDFLHMQRLDMETGAKTPLAWIDNAGKCFFPEIYESDERTNYCHHKCVEDPKQNAPHDIKLRLEIDVNGGETPRLNLEECSDESGDNMMDDVPLAQRSSNEHYDEATEDSCSRKLEAAVSKWDETDAIVVSGAKLTGSEVLDKDAVKKMFAVGTASLGHVPVLDVGRFSSEIAEARLALFQKQVEITKKHRGDANVRYAWLPAKREVLSAVMMQGLGVGGAFIRKSIYGVGIHLTAADCPYFSARYCDVDENGVRYMVLCRVIMGNMELLRGDKAQFFSGGEEYDNGVDDIESPKNYIVWNINMNTHIFPEFVVRFKLSNLPNAEGNL
no binding | RCD1 WWE--- (amino acids 1-265) (domain or fragment, UniProt Q8RY59 1-265) MEAKIVKVLDSSRCEDGFGKKRKRAASYAAYVTGVSCAKLQNVPPPNGQCQIPDKRRRLEGENKLSAYENRSGKALVRYYTYFKKTGIAKRVMMYENGEWNDLPEHVICAIQNELEEKSAAIEFKLCGHSFILDFLHMQRLDMETGAKTPLAWIDNAGKCFFPEIYESDERTNYCHHKCVEDPKQNAPHDIKLRLEIDVNGGETPRLNLEECSDESGDNMMDDVPLAQRSSNEHYDEATEDSCSRKLEAAVSKWDETDAIVVSGA
no binding | RCD1 WWE (amino acids 1-170) (domain or fragment, UniProt Q8RY59 1-170) MEAKIVKVLDSSRCEDGFGKKRKRAASYAAYVTGVSCAKLQNVPPPNGQCQIPDKRRRLEGENKLSAYENRSGKALVRYYTYFKKTGIAKRVMMYENGEWNDLPEHVICAIQNELEEKSAAIEFKLCGHSFILDFLHMQRLDMETGAKTPLAWIDNAGKCFFPEIYESDE

No constants are given. Whether binding was seen depends on the method and setting.
